Assay results from US20230256092A1, “COMBINED USE OF ANTI-CCR8 ANTIBODY AND CHEMOTHERAPEUTIC AGENT” (Shionogi & Co., Ltd., priority 2020, published 2023).
Residue numbers refer to the chain shown, from its start. Numbers in names are those of the source. Some entries share one result that the patent states for a list of compounds.

B1: h10A11 (IGKV4-1/IGHV3-73 R96K): humanized 10A11 heavy chain CDR point mutant (antibody, V domains shown)
VL: DIVMTQSPDSLAVSLGERATINCRSSKSLLHSNGNTYLYWYQQKPGQPPKLLIYRMSNLASGVPDRFSGSGSGTDFTLTISSLQAEDVAVYYCMQHLEYPLTFGQGTKLEIKRT
VH: EVQLVESGGGLVQPGGSLKLSCAASGFAFNTYALYWVRQASGKGLEWVGRIRSKSNNYATYYADSVKDRFTISRDDSKNTAYLQMNSLKTEDTAVYYCTRAKFYYSDYGYAMDYWGQGTLVTVSS
B2: h10A11 (IGKV4-1/IGHV3-73 F97L): humanized 10A11 heavy chain CDR point mutant (antibody, V domains shown)
VL: B1 VL
VH: B1 VH with K102R, F103L
B3: h10A11 (IGKV4-1/IGHV3-73 Y98F): humanized 10A11 heavy chain CDR point mutant (antibody, V domains shown)
VL: B1 VL
VH: B1 VH with K102R, Y104F
B4: h10A11 (IGKV4-1/IGHV3-73 G100cA): humanized 10A11 heavy chain CDR point mutant (antibody, V domains shown)
VL: B1 VL
VH: B1 VH with K102R, G109A
B5: h10A11 (IGKV4-1/IGHV3-73 D101E): humanized 10A11 heavy chain CDR point mutant (antibody, V domains shown)
VL: B1 VL
VH: B1 VH with K102R, D113E
B6: h10A11 (IGKV4-1/IGHV3-73 A33V): humanized 10A11 heavy chain CDR point mutant (antibody, V domains shown)
VL: B1 VL
VH: B1 VH with A33V, K102R
B7: h10A11 (IGKV4-1/IGHV3-73 Y35F): humanized 10A11 heavy chain CDR point mutant (antibody, V domains shown)
VL: B1 VL
VH: B1 VH with Y35F, K102R
B8: h10A11 (IGKV4-1/IGHV3-73 R52K): humanized 10A11 heavy chain CDR point mutant (antibody, V domains shown)
VL: B1 VL
VH: B1 VH with R52K, K102R
B9: h10A11 (IGKV4-1/IGHV3-73 N53Q): humanized 10A11 heavy chain CDR point mutant (antibody, V domains shown)
VL: B1 VL
VH: B1 VH with N56Q, K102R
B10: h10A11 (IGKV4-1/IGHV3-73 Y59F): humanized 10A11 heavy chain CDR point mutant (antibody, V domains shown)
VL: B1 VL
VH: B1 VH with Y62F, K102R

molecular target: T1, human CCR8 (Homo sapiens, UniProt P51685); assay: Neutralizing activity: inhibition of Ca2+ influx by 200 nM hCCL1 in human CCR8 expressing 293 cells (FLIPR), Test Example 6; format: cell-based; conditions: humanized 10A11 CDR point mutants versus WT
T1 construct: expressed in transfected cells; host or cells: 293 cells
Description: The antibody dilution diluted with a medium was added to human CCR8 expressing 293 cells in which a Ca^2+ indicator was incorporated beforehand, and Ca^2+ influx by addition of 200 nM hCCL1 (manufactured by BioLegend) was measured with FLIPR. […] The evaluation was performed at least three times, and IC50 was expressed as average±SD.

Reduction of neutralizing activity of the mutant, ≥ 10 fold:
B1
B2
B3
B4
B5
B6
B7
B8
B9
B10
